Values quoted from earlier work in patent publication US8287898B2, “Compositions and methods for body weight management” (The Procter & Gamble Company, priority 2000, dated 2012).
At least one compound was matched to its structure with a doubt left.

Conditions: micellar solution infused into the duodenum, rats

Structure (SMILES): CCCCCCCC/C=C\CCCCCCCC(=O)O [oleate]
- 4-hour food intake: reduced 4-hour food intake in rats to a greater extent than a micellar triolein solution
